From article PMC5738801 come the findings set out here.

Protein sequences, listed by entry. Tags and fused reporters are not part of them.
UniProt P14618: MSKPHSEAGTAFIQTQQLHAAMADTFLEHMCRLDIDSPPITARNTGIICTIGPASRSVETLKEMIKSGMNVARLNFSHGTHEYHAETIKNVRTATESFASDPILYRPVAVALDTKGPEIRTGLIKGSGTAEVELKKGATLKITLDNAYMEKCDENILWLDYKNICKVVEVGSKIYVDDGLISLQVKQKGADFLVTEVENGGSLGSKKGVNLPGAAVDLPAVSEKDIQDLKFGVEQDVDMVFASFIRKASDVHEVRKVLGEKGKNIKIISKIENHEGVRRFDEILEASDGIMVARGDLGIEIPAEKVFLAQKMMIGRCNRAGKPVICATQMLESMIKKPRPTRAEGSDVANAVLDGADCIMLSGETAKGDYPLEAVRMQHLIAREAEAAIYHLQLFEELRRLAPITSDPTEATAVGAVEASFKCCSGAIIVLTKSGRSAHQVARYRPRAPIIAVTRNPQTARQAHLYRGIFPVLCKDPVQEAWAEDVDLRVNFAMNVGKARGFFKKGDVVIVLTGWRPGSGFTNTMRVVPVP
UniProt P49841: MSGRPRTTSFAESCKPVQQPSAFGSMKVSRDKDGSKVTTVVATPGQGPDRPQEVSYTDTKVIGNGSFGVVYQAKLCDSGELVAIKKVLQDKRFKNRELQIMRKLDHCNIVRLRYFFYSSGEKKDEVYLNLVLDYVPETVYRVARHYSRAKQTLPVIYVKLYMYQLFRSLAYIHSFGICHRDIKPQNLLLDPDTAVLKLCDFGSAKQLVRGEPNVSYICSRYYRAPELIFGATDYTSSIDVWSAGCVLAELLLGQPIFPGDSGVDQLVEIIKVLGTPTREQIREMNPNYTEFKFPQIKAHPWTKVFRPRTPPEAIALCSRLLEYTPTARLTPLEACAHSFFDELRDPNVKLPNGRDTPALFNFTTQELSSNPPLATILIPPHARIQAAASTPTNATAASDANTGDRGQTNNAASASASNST

No constants are given. Whether binding was seen depends on the method and setting. In cells and extracts the contact can be indirect. Some entries that bind do so weakly or less than the wild type.

The target in this test is PKM2 (Huh7 cells) (not stated (Huh7 cells; endogenous or transfected not told)) (UniProt P14618). Put plainly: co-IP; co-IP for HSP90, PKM2 and GSK-3β from Huh7 cells; Protein G beads, 4 °C.

Turning to “Glycogen synthase kinase-3β (Huh7 cells) (from UniProt P49841 1-420) (enzyme)”, the binding result is given as “binds”.
